These are yes or no findings as the source states them, for the method shown. For part of these data: Binding seen in cells or lysates may run through a third protein. Some results given as binding are weak or reduced against the parent protein; the word gives no strength.
Legend:
[1] = target: GST-tagged domain D1 of FGFR1 (GST-D1) (UniProt P11362); assay: pull-down; GST-D1 (20 µg) on Glutathione Sepharose; NusA-His-D1 preincubated 1 h 4 °C alone or with 90 nM scFvD2 or scFvD2-Fc, then 1 h 4 °C with the beads; washes 50 mM Tris, 150 mM NaCl, 0.05% Triton X-100, pH 7.4; Western blot; both purified
[2] = target: FGFR1 of NIH3T3 cells (mouse (endogenous in NIH3T3)) (UniProt P16092); assay: native gel or EMSA; 2D BN/SDS-PAGE; serum starved NIH3T3 cells untreated or with FGF1 (300 ng/ml, heparin 30 U/ml), scFvD2 or scFvD2-Fc, 10 min 37 °C; 2% digitonin; 4-13% BN-PAGE, then SDS-PAGE and anti-FGFR1 blot
[3] = target: FGFR1 of NIH3T3 cells (mouse (endogenous in NIH3T3)) (UniProt P16092); assay: cross-linking; serum starved NIH3T3 cells with FGF1 (200 ng/ml), heparin (20 U/ml), scFvD2 (90 nM) or scFvD2-Fc (90 nM), 5 min 37 °C; DSS 5 mM, 30 min on ice; FGFR1 immunoprecipitated (sc-121) and blotted

Sequences of proteins named here, by UniProt entry; tags and fusion partners are left off. Residues count along the entry.
UniProt P11362, residues 22-157: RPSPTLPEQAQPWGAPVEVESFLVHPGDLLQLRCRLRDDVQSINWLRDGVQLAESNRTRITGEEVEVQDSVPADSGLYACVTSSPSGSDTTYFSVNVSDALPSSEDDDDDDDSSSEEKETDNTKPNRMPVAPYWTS
UniProt P16092, residues 22-822: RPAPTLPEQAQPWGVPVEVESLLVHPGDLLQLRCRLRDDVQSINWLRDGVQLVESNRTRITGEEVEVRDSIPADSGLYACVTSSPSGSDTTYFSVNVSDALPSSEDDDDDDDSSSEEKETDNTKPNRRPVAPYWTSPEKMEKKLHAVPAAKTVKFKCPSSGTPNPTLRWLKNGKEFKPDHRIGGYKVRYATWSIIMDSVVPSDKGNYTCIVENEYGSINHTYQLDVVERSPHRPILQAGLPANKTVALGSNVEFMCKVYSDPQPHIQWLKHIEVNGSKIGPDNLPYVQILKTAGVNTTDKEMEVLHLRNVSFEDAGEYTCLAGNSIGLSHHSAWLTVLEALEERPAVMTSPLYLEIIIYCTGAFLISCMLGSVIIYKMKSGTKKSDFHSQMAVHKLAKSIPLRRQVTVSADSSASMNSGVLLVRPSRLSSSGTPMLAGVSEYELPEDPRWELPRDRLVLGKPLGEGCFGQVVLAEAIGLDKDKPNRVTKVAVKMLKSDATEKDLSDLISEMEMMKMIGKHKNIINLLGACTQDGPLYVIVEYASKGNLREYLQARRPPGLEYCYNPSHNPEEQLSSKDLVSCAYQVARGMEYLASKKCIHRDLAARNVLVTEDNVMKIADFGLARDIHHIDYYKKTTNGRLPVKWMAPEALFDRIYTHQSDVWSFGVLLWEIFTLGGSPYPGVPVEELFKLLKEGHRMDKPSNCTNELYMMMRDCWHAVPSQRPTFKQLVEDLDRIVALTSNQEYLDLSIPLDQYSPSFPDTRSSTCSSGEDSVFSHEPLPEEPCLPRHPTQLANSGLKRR

Substance: His-tagged NusA fusion of domain D1 of FGFR1 (NusA-His-D1) (from UniProt P11362 22-157) (domain or fragment)
- binding [1]: binds weakly

Substance: FGFR1 of NIH3T3 cells (from UniProt P16092 22-822) (receptor)
- binding [2]: binds
- binding [3]: binds

From publication PMC5540934
